Assay results taken from US6756373B1, “Pharmaceutically active compounds” (Pfizer Inc., priority 1999, dated 2004).
Some of these results come from one statement about several compounds together.

target: cGMP PDE5 (UniProt O76074); experiment: Phosphodiesterase (PDE) inhibitory activity: in vitro inhibition of cGMP PDE5 (batch method or scintillation proximity assay); conditions: read-out: IC50 values for the PDE5 enzyme, stated in text as 'less than about'

SMILES	IC50
CCCOc1ncc(NC(=O)N(C)C)cc1-c1nc2c(CCC)nn(C)c2c(=O)[nH]1 [Example 91, N′-[6-(Propoxy)-5-(1-methyl-7-oxo-3-propyl-6,7-dihydro-1H-pyrazolo[4,3-d]pyrimidin-5-yl)-3-pyridinyl]-N,N-dimethylurea]	< 0.005 µM
CCOc1ncc(C(=O)N(C)OC)cc1-c1nc2c(CC)n(CCN(C)C)nc2c(=O)[nH]1 [Example 87, 5-{2-[2-(Dimethylamino)ethyl]-3-ethyl-7-oxo-6,7-dihydro-2H-pyrazolo[4,3-d]pyrimidin-5-yl}-6-ethoxy-N-methoxy-N-methylnicotinamide]	< 0.01 µM
CCCOc1ncc(C(C)=O)cc1-c1nc2c(CC)n(C3CN(C(C)=O)C3)nc2c(=O)[nH]1 [Example 121, 2-(1-Acetyl-3-azetidinyl)-5-(5-acetyl-2-propoxy-3-pyridinyl)-3-ethyl-2,6-dihydro-7H-pyrazolo[4,3-d]pyrimidin-7-one]	< 0.01 µM
CCCOc1ncc(I)cc1-c1nc2c(CC)nn(CC(=O)OC(C)(C)C)c2c(=O)[nH]1 [Example 64, tert-butyl [3-ethyl-5-(5-iodo-2-propoxy-3-pyridinyl)-7-oxo-6,7-dihydro-1H-pyrazolo[4,3-d]pyrimidin-1-yl]acetate]	< 0.01 µM
CCCOc1ncc(C(C)=O)cc1-c1nc2c(CC)nn(CC(=O)O)c2c(=O)[nH]1 [Example 68, [5-(5-Acetyl-2-propoxy-3-pyridinyl)-3-ethyl-7-oxo-6,7-dihydro-1H-pyrazolo[4,3-d]pyrimidin-1-yl]acetic Acid]	< 0.01 µM
CCCc1c2nc(-c3cc(C(=O)CO)cnc3OCC(C)C)[nH]c(=O)c2nn1C [Example 29, 5-(5-Glycoloyl-2-isobutoxy-3-pyridinyl)-2-methyl-3-propyl-2,6-dihydro-7H-pyrazolo[4,3-d]pyrimidin-7-one]	< 0.01 µM
CCc1c2nc(-c3cc(C(C)=O)cnc3OCC(C)C)[nH]c(=O)c2nn1C1CCN(C)CC1 [Example 135, 5-(5-Acetyl-2-isobutoxy-3-pyridinyl)-3-ethyl-2-(1-methyl-4-piperidinyl)-2,6-dihydro-7H-pyrazolo[4,3-d]pyrimidin-7-one]	< 0.01 µM
CCOc1ncc(C(=O)O)cc1-c1nc2c(CC)n(CCN(C)C)nc2c(=O)[nH]1 [Example 86, 5-{2-[2-(Dimethylamino)ethyl]-3-ethyl-7-oxo-6,7-dihydro-2H-pyrazolo-[4,3-d]pyrimidin-5-yl}-6-ethoxynicotinic Acid]	< 0.01 µM
CCCCOc1ncc(I)cc1-c1nc2c(CC)n(CCOC)nc2c(=O)[nH]1 [Example 1, 5-(2-Butoxy-5-iodo-3-pyridinyl)-3-ethyl-2-(2-methoxyethyl)-2,6-dihydro-7H-pyrazolo[4,3-d]pyrimidin-7-one]	< 0.01 µM
CCCOc1ncc(C(C)=O)cc1-c1nc2c(CC)n(Cc3ccccn3)nc2c(=O)[nH]1 [Example 116, 5-(5-Acetyl-2-propoxy-3-pyridinyl)-3-ethyl-2-(2-pyridinylmethyl)-2,6-dihydro-7H-pyrazolo[4,3-d]pyrimidin-7-one]	< 0.005 µM
CCCCOc1ncc(C(C)=O)cc1-c1nc2c(CC)n(C3CCN(C(=O)OC(C)(C)C)CC3)nc2c(=O)[nH]1 [Example 50]	< 0.005 µM
